Construct, isoform or probe ends are uncertain for at least one entry. Results from cells or extracts need not show a direct contact. Negatives hold for the conditions tested.
Molecular target: Oct4 (co-expressed with Flag-Ash2l WT or W118A) (UniProt P20263)
Test: binding assay
Settings: plasmid ChIP in HEK293T, protein in cells, protein details: Myc
[1] = enhanced by Flag-Ash2l WT, not W118A

Chains of the proteins cited; added tags and fusions are not shown.
UniProt P20263, whole entry, stated change not applied: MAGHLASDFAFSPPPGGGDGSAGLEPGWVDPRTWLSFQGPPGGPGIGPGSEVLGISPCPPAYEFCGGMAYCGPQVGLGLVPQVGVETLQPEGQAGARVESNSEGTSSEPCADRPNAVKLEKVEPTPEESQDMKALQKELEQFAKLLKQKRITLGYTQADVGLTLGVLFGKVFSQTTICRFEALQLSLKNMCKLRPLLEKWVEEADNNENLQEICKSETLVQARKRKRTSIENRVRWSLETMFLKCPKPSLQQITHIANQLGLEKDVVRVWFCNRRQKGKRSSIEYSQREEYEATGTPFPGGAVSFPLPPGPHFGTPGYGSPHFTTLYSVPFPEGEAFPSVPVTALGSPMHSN

Sequence	binding result [1]	also measured
TACATCCCTAGTAAACATCCAACTTCTTTTTATTC (double strand) [Jarid2 enhancer, intact Ash2l motif]	binds	
TTTTGACTGCTAACCACCCAGAGGACCCACTTAAC (double strand) [Nanog enhancer, intact Ash2l motif]	binds	
TTTTCTTAAC (double strand) [Nanog enhancer, Ash2l motif deleted]		binding result (Ash2l-mediated enhancement of Oct4 binding abolished, variant of Nanog enhancer, intact Ash2l motif): no binding
TACATTTTATTC (double strand) [Jarid2 enhancer, Ash2l motif deleted]		binding result (Ash2l-mediated enhancement of Oct4 binding abolished, variant of Jarid2 enhancer, intact Ash2l motif): no binding
